Source: paper PMC12540039
Results are given in words; binding and its absence hold for the method and conditions named. In cells and extracts the contact can be indirect. Some entries that bind do so weakly or less than the wild type.

By UniProt entry, the sequences of proteins in these tests, tags left out. Residues count along the entry.
UniProt P02340: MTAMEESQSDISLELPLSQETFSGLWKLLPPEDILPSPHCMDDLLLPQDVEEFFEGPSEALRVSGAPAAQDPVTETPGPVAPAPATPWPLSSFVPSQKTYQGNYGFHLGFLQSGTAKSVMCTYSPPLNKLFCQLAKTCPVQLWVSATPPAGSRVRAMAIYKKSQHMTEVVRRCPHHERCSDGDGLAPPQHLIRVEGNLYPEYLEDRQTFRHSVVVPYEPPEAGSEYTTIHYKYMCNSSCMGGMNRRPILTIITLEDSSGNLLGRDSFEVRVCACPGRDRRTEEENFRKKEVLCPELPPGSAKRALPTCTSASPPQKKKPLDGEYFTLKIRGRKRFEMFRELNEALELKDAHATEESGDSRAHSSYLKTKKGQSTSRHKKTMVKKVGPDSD
UniProt P38647, residues 47-679: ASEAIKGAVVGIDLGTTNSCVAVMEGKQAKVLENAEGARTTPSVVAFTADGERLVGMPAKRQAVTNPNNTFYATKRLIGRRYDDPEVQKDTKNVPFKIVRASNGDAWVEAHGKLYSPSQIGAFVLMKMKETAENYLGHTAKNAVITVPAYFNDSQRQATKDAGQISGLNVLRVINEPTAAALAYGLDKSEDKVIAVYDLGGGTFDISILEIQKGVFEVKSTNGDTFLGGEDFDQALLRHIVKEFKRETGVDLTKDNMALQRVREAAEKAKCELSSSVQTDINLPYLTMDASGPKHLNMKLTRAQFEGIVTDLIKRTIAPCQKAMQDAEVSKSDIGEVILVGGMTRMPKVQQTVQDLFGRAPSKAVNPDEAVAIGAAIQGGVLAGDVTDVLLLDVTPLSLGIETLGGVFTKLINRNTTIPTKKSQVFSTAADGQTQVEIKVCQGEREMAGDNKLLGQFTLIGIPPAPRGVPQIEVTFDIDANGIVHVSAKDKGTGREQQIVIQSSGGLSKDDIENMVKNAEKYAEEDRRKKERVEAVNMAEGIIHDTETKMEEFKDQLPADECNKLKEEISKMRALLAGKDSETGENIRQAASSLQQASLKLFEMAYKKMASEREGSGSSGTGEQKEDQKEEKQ

Key:
[1] = target: p53 (mouse (endogenous in gastrocnemius muscle)) (UniProt P02340); assay: co-IP; gastrocnemius muscle lysates of HFD-fed control and iMp53 KO mice; Classic Magnetic IP Kit, IP Lysis/Wash Buffer with phosphatase inhibitors; incubated overnight at 4 °C with control IgG or specific antibody, magnetic beads 1 h at room temperature; detected by Western blotting
[2] = target: glucose-regulated protein 75 (mouse (endogenous in gastrocnemius muscle)) (UniProt P38647); assay: as above

Substance	binding [1]	binding [2]
glucose-regulated protein 75 (from UniProt P38647 47-679)	binds	–
p53 (from UniProt P02340 1-390)	–	binds
